Experimental findings from paper PMC12823440, “Inhibitors supercharge kinase turnover through native proteolytic circuits” (Nature, 2025) are described below.

By UniProt entry, the sequences of proteins in these tests, tags left out.
UniProt P07948: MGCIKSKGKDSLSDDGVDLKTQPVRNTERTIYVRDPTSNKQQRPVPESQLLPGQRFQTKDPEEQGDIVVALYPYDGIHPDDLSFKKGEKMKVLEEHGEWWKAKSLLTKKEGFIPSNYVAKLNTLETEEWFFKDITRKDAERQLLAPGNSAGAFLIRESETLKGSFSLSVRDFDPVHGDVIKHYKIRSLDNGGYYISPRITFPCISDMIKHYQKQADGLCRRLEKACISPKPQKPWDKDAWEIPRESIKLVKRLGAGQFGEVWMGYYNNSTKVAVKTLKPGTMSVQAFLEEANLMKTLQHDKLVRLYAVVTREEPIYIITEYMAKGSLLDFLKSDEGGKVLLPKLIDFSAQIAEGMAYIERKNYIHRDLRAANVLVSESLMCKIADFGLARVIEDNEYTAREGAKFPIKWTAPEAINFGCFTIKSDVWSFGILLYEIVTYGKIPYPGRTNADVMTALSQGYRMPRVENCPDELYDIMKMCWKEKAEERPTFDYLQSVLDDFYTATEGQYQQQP
UniProt P51451: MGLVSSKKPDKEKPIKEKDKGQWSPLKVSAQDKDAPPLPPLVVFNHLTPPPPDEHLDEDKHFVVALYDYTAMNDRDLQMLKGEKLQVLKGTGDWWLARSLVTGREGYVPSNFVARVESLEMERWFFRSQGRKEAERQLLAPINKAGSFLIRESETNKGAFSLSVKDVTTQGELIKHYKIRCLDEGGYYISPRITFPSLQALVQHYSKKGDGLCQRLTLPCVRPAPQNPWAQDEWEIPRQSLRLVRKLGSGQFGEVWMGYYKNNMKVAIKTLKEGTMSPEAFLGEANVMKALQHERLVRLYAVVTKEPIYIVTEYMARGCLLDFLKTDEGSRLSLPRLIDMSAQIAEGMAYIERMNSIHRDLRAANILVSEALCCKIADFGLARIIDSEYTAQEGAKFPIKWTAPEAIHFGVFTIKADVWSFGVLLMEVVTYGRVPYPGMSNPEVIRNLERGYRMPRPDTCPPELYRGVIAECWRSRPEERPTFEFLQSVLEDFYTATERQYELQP
UniProt Q13191: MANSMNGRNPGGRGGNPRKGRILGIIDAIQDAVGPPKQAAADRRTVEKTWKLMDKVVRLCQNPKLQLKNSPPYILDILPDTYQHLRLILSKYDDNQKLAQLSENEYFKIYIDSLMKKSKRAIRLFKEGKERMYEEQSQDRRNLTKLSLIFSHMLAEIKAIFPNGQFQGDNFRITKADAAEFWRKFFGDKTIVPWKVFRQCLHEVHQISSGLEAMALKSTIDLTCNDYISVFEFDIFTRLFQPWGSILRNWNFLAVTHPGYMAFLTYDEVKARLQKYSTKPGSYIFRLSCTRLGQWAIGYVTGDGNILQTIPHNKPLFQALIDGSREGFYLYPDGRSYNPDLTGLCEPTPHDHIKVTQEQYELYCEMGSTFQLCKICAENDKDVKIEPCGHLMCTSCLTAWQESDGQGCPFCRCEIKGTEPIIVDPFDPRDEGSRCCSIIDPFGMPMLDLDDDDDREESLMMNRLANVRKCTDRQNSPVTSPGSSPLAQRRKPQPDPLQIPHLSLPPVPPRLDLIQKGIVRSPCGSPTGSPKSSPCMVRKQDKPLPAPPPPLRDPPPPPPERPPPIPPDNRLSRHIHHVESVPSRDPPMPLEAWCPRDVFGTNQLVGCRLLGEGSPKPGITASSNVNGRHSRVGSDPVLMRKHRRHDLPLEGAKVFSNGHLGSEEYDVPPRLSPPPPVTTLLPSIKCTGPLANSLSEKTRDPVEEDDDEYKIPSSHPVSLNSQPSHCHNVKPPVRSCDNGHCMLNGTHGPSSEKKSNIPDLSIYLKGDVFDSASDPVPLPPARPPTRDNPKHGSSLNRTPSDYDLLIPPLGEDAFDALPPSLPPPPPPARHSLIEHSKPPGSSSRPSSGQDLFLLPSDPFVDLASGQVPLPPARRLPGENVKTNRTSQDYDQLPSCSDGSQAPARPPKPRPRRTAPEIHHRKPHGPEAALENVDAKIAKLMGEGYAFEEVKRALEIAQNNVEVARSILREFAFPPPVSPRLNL

No constants are given. Whether binding was seen depends on the method and setting. Some results given as binding are weak or reduced against the parent protein; the word gives no strength.

Experiment [1] concerns the target LYN fused to 3×Flag-miniTurbo biotin ligase (human) (UniProt P07948). Nature of the experiment: proximity labelling; BioID: LYN-miniTurbo in Flp-In T-REx 293, doxycycline 24 h, then SI-3 (156 nM) or DMSO with 100 µM biotin for 1 h; streptavidin enrichment, TMT mass spectrometry; SI-3 against DMSO and against GFP-mT controls.
Experiment [2] addresses BLK fused to 3×Flag-miniTurbo biotin ligase (human) (UniProt P51451). Briefly: proximity labelling; BioID: BLK-miniTurbo (and APH1A-miniTurbo) in KBM7, doxycycline 24 h, 100 µM biotin 1 h; baseline (DMSO) scored against GFP controls with SAINTq; streptavidin enrichment, TMT mass spectrometry.

Turning to CBLB (from UniProt Q13191 1-982), the binding entry in experiment [1] is listed as “binds”.
Take NCSTN (from UniProt Q92542 34-709): in experiment [2], the binding entry is reported as “binds”.
